PubChem BioAssay AID1224830, NIAID, 2016

Screen: 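Host factors that control LPS-induced TNF expression in human macrophages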 (primary screen)
Cells: human THP-1 monocytic leukaemia cells, TNF dual-luciferase reporter clone, PMA-differentiated to macrophage-like cells
Reagent: siRNA pool against human genes, 50 nM
Duration: LPS for 4 h, given about 3 days after siRNA transfection
Challenge: bacterial LPS (TLR4 ligand), 10 ng/ml
Measured: 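TNF firefly reporter luminescence divided by renilla, normalised to the plate median, then turned into a robust z-score for each replicate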
Scale: TNF reporter robust z-score: higher = stronger TNF reporter response to LPS
Call rule: 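a well is active when its z-score exceeds 2.8 or falls below -1.5; control wells carry no call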
In all, the deposit lists about 18,000 reagents; shown is a part drawn at random. Over the whole deposit, about 2,900 (16%) got an active call. 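Calls are made per well; low scores hint the gene aids the LPS response, high scores that it dampens it.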 Repeated entries: four replicate wells of each siRNA pool. No sequences are given here.

NPBWR2
- TNF reporter robust z-score: -1.11
- outcome: inactive

NPBWR2
- TNF reporter robust z-score: -0.24
- outcome: inactive

NPBWR2
- TNF reporter robust z-score: -0.75
- outcome: inactive

NPBWR2
- TNF reporter robust z-score: -0.82
- outcome: inactive

RALGAPB
- TNF reporter robust z-score: 0.33
- outcome: inactive

RALGAPB
- TNF reporter robust z-score: 0.11
- outcome: inactive

RALGAPB
- TNF reporter robust z-score: 0.53
- outcome: inactive

RALGAPB
- TNF reporter robust z-score: 3.35
- outcome: active

GFM2
- TNF reporter robust z-score: -0.49
- outcome: inactive

GFM2
- TNF reporter robust z-score: 0.17
- outcome: inactive

GFM2
- TNF reporter robust z-score: -0.52
- outcome: inactive

GFM2
- TNF reporter robust z-score: -0.45
- outcome: inactive

In a second layout: entries from further up.
{"gene": "NPBWR2", "TNF reporter robust z-score": -1.11, "outcome": "inactive"}
{"gene": "NPBWR2", "TNF reporter robust z-score": -0.24, "outcome": "inactive"}

The listing continues.
ERCC5
- TNF reporter robust z-score: 0.51
- outcome: inactive

ERCC5
- TNF reporter robust z-score: 1.84
- outcome: inactive

ERCC5
- TNF reporter robust z-score: 0.74
- outcome: inactive

ERCC5
- TNF reporter robust z-score: 1.75
- outcome: inactive

ZNF833P
- TNF reporter robust z-score: -0.77
- outcome: inactive

ZNF833P
- TNF reporter robust z-score: 0.19
- outcome: inactive

ZNF833P
- TNF reporter robust z-score: -0.82
- outcome: inactive

ZNF833P
- TNF reporter robust z-score: 0.88
- outcome: inactive
